# Source: patent publication US20220041706A1
# Protein sequences, listed by entry. Tags and fused reporters are not part of them. Lines headed by an entry give the natural chain unless they say otherwise; changes in a name come on top.
# UniProt O95750: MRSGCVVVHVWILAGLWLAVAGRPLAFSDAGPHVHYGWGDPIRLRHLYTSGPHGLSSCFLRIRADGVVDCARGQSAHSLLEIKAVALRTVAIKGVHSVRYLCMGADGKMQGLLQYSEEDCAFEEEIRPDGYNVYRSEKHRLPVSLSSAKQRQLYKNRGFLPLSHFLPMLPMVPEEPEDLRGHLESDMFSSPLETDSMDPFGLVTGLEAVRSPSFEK
# No constants are given. Whether binding was seen depends on the method and setting. Some binding calls cover weakened binding; strength is not graded here.
# Target: T1, FGFR4-hFc (UniProt P22455)
# T1 sequence (looked up): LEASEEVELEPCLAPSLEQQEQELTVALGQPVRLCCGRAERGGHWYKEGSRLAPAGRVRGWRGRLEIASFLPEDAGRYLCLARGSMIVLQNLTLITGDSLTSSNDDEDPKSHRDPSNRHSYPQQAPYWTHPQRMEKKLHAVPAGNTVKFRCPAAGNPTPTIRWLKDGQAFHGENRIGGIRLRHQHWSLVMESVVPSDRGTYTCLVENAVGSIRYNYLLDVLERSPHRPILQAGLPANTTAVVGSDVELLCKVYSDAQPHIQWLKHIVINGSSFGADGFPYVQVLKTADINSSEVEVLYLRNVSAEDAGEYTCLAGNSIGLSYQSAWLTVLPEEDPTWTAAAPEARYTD
# Test: SPR (Biacore), FGFR4-hFc captured, 20 µg/ml heparin
substance,measurement,value
"FGF19^ΔNT, N-terminus deletion variant of FGF19 (residues Arg43-Lys216 of SEQ ID NO: 1), C-terminal His-Avi tag (from UniProt O95750 43-216) (ligand)",binding,binds
